Results reported in PMC7018513.
These are yes or no findings as the source states them, for the method shown. Binding calls can cover weak binding; strength is not graded here. For some assays here: Sequences can lack the tags named with a protein. For some assays here: In cells and extracts the contact can be indirect.

Amino acid sequences for entries named in this document (tags omitted). A change or cut given only in a name is not applied to a line headed by its entry.
UniProt F1MB52: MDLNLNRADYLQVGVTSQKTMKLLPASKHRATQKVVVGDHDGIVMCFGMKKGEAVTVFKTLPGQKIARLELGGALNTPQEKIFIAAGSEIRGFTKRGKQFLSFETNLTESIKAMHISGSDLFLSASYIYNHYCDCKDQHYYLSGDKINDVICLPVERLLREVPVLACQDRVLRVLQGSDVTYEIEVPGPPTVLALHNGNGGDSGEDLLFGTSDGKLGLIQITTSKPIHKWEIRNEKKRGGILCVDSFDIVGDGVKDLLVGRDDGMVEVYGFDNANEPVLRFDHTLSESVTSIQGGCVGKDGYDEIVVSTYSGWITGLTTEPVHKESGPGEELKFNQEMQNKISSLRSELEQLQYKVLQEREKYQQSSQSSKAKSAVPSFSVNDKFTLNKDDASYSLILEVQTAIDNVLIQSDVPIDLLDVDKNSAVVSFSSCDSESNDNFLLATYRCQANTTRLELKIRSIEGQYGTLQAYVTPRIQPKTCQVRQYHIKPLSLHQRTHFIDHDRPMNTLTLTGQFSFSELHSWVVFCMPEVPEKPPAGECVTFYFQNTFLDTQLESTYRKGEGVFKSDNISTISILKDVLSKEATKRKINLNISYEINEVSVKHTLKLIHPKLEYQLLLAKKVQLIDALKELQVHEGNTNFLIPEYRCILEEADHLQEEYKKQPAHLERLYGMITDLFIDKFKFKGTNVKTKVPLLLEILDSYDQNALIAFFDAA
UniProt Q32L13: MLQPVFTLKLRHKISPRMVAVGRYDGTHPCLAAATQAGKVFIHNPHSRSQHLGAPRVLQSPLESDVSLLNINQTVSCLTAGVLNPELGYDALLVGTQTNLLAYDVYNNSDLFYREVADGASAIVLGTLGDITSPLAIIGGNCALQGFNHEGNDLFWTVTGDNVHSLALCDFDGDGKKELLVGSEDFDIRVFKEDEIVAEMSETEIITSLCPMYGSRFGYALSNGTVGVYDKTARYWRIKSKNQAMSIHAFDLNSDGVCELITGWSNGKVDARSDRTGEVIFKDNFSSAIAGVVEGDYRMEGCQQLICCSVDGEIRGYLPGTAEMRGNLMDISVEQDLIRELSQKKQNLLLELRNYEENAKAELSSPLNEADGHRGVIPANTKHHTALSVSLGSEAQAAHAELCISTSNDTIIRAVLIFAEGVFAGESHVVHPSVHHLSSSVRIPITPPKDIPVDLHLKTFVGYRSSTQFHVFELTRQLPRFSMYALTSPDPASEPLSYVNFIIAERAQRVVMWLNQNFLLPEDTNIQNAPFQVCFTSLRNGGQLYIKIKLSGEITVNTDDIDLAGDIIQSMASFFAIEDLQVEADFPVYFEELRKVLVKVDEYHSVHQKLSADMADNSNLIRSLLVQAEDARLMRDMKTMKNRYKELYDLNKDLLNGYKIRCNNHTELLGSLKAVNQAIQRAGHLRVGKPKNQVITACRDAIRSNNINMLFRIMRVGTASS

Columns and labels:
[1] = biological target: T1, BBS4 (Bos taurus (endogenous in bovine retina)) (UniProt Q1JQ97); test: cryo-EM structure; BBSome-only class (no ARL6), 3.1 Å; the sample was 0.7 mg/ml BBSome mixed with 2x molar excess of ARL6 and 1 mM GTP; classes separated by focused classification; both purified
T1 sequence: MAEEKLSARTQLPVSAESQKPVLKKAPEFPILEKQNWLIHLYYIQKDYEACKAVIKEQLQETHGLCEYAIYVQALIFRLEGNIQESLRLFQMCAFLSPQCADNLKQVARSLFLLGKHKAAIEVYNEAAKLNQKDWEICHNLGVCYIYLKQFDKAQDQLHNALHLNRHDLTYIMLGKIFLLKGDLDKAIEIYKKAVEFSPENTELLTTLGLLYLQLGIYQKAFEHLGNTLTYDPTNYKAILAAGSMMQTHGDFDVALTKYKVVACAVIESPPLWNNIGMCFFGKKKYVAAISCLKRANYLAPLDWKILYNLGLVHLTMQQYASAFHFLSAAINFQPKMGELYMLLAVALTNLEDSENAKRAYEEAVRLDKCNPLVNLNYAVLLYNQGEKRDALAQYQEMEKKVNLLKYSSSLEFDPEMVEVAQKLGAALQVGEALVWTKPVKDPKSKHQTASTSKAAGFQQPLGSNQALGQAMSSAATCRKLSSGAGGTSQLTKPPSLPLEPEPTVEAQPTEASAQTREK

[2] = biological target: T2, Flag-∆16NARL6(Q73L) (Bos taurus) (UniProt Q0IIM2); test: pull-down; ARL6:GTP held on anti-Flag M2 affinity resin; clarified bovine retinal lysate with 100 μM GTP loaded, 1 hr at 4°C; 40 mM Tris pH 8.0, 150 mM NaCl, 250 mM sucrose, 5 mM MgCl2, 4 mM β-mercaptoethanol; eluted with Flag peptide; only the target purified
T2 sequence: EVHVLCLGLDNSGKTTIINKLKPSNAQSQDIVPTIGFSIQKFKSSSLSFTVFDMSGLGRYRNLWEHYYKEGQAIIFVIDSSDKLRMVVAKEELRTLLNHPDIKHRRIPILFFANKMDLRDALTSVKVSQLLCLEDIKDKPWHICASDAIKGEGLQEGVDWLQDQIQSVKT

[3] = biological target: BBS7 (Bos taurus (endogenous in bovine retina)) (UniProt F1MB52); test: cryo-EM structure; BBSome-only class (no ARL6), 3.1 Å; the sample was 0.7 mg/ml BBSome mixed with 2x molar excess of ARL6 and 1 mM GTP; classes separated by focused classification; both purified
[4] = biological target: BBS8 (Bos taurus (endogenous in bovine retina)); test: as above
[5] = biological target: BBS9 (Bos taurus (endogenous in bovine retina)); test: as above
[6] = biological target: BBS2 (Bos taurus (endogenous in bovine retina)) (UniProt Q32L13); test: as above
[7] = biological target: BBS7 (Bos taurus (endogenous in bovine retina)) (UniProt F1MB52); test: as above; remark: listed apart in the source
[8] = biological target: BBS7 (Bos taurus (endogenous in bovine retina)) (UniProt F1MB52); test: cryo-EM structure; BBSome:ARL6:GTP class, 3.5 Å; 0.7 mg/ml BBSome (~18 μM) mixed with 2x molar excess of ARL6 (36 μM) and 1 mM GTP, 1 hr at 4°C; both purified
[9] = biological target: native bovine BBSome (Bos taurus (endogenous in bovine retina)); test: as above

BBS8 (Bos taurus (endogenous in bovine retina))
binding [1]: binds

native bovine BBSome (Bos taurus (endogenous in bovine retina)) (complex)
binding [2]: binds

BBS2 (from UniProt Q32L13)
binding [3]: binds

B1: BBS18 (protein, UniProt G3N2W1 1-69)
chain: MAETKSMFREVLPKQGQLYVEDITTMVLCKPKLLPLKSLTLEKLEKMQQAAQDTIHQQEMTEKEQKITH
binding [4]: binds | binding [5]: binds

B2: BBS1 (protein, UniProt A0AAA9RX20 1-668)
chain: MGRIRDKLYKSERGIASQLVETPARTSATCSGASLSRAGKLSARNLDTRASPQPGSFWALRGGWPQPVARVTPGKMAATSSSDSDGGKGESSEANSKWLDSLSDSMANIHTFSACLALADFHGDGEYKLAMGDLGPDGRQPRLKVLKGHTLVSQKPLPDLPAAAVTFLMASHEPRTPALAIASGPCVYVYKNLKPYFKFSLPSLPTNPLEQDLWNQAKEDQIDPLTLKEMLEGIREKAEVPLSVQSLRFLPLELSEMEAFVNQHKSKSIRRQTVITTMTTLKKNLADEDAVSCLVLGTENKELLVLDPEAFTILAKMSLPSVPAFLEASGQFDVEFRLAAACRNGSIYILRRDSKRPKYCIELGAQPVGLVGVHKVLVVGSNQDSLHGFTYKGKRLWTVQMPAAILAMNLLEQHSRGLQAVMAALANEEVRIYHDKVLLNVIRTPEAVTSLCFGRYGREDNTLIMTTLGGGLIIKILKRTAVFAEGGGEAGPPPSQAIKLNVPRKTRLYVDQTLREREAGTAMHRTFQADLYLLRLRAARAYVQALESSLSPVSLTAREPLKLHAVVQGLGPTFKLTLHLQNTSTARPILGLVVCFLYNEVLYALPRAFFKVPLLVPGLNYPLETFVKSLSDKGISDIIKVLVLREGQSTPLLSAHINMPMSEGLAAD
binding [6]: binds | binding [7]: binds | binding [5]: binds

B3: Flag-∆16NARL6(Q73L) (enzyme, UniProt Q0IIM2 17-186)
chain: EVHVLCLGLDNSGKTTIINKLKPSNAQSQDIVPTIGFSIQKFKSSSLSFTVFDMSGLGRYRNLWEHYYKEGQAIIFVIDSSDKLRMVVAKEELRTLLNHPDIKHRRIPILFFANKMDLRDALTSVKVSQLLCLEDIKDKPWHICASDAIKGEGLQEGVDWLQDQIQSVKT
binding [8]: binds | binding [9]: binds

B4: BBS4 (protein, UniProt Q1JQ97 1-519)
chain: MAEEKLSARTQLPVSAESQKPVLKKAPEFPILEKQNWLIHLYYIQKDYEACKAVIKEQLQETHGLCEYAIYVQALIFRLEGNIQESLRLFQMCAFLSPQCADNLKQVARSLFLLGKHKAAIEVYNEAAKLNQKDWEICHNLGVCYIYLKQFDKAQDQLHNALHLNRHDLTYIMLGKIFLLKGDLDKAIEIYKKAVEFSPENTELLTTLGLLYLQLGIYQKAFEHLGNTLTYDPTNYKAILAAGSMMQTHGDFDVALTKYKVVACAVIESPPLWNNIGMCFFGKKKYVAAISCLKRANYLAPLDWKILYNLGLVHLTMQQYASAFHFLSAAINFQPKMGELYMLLAVALTNLEDSENAKRAYEEAVRLDKCNPLVNLNYAVLLYNQGEKRDALAQYQEMEKKVNLLKYSSSLEFDPEMVEVAQKLGAALQVGEALVWTKPVKDPKSKHQTASTSKAAGFQQPLGSNQALGQAMSSAATCRKLSSGAGGTSQLTKPPSLPLEPEPTVEAQPTEASAQTREK
binding [5]: binds
